Reference: PMC10477855
Results are given in words; binding and its absence hold for the method and conditions named. Binding seen in cells or lysates may run through a third protein. Here binding means that the protein was enriched with, or labelled near, the bait; the list need not be complete.

Amino acid sequences for entries named in this document (tags omitted).
UniProt P06493: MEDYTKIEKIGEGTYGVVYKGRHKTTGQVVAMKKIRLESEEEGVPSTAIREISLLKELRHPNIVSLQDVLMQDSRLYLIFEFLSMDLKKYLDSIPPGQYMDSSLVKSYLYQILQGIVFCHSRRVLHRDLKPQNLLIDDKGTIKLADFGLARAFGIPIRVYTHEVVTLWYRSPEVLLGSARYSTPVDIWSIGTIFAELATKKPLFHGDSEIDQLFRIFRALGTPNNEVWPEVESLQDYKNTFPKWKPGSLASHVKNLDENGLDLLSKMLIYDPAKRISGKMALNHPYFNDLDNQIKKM
UniProt O95071: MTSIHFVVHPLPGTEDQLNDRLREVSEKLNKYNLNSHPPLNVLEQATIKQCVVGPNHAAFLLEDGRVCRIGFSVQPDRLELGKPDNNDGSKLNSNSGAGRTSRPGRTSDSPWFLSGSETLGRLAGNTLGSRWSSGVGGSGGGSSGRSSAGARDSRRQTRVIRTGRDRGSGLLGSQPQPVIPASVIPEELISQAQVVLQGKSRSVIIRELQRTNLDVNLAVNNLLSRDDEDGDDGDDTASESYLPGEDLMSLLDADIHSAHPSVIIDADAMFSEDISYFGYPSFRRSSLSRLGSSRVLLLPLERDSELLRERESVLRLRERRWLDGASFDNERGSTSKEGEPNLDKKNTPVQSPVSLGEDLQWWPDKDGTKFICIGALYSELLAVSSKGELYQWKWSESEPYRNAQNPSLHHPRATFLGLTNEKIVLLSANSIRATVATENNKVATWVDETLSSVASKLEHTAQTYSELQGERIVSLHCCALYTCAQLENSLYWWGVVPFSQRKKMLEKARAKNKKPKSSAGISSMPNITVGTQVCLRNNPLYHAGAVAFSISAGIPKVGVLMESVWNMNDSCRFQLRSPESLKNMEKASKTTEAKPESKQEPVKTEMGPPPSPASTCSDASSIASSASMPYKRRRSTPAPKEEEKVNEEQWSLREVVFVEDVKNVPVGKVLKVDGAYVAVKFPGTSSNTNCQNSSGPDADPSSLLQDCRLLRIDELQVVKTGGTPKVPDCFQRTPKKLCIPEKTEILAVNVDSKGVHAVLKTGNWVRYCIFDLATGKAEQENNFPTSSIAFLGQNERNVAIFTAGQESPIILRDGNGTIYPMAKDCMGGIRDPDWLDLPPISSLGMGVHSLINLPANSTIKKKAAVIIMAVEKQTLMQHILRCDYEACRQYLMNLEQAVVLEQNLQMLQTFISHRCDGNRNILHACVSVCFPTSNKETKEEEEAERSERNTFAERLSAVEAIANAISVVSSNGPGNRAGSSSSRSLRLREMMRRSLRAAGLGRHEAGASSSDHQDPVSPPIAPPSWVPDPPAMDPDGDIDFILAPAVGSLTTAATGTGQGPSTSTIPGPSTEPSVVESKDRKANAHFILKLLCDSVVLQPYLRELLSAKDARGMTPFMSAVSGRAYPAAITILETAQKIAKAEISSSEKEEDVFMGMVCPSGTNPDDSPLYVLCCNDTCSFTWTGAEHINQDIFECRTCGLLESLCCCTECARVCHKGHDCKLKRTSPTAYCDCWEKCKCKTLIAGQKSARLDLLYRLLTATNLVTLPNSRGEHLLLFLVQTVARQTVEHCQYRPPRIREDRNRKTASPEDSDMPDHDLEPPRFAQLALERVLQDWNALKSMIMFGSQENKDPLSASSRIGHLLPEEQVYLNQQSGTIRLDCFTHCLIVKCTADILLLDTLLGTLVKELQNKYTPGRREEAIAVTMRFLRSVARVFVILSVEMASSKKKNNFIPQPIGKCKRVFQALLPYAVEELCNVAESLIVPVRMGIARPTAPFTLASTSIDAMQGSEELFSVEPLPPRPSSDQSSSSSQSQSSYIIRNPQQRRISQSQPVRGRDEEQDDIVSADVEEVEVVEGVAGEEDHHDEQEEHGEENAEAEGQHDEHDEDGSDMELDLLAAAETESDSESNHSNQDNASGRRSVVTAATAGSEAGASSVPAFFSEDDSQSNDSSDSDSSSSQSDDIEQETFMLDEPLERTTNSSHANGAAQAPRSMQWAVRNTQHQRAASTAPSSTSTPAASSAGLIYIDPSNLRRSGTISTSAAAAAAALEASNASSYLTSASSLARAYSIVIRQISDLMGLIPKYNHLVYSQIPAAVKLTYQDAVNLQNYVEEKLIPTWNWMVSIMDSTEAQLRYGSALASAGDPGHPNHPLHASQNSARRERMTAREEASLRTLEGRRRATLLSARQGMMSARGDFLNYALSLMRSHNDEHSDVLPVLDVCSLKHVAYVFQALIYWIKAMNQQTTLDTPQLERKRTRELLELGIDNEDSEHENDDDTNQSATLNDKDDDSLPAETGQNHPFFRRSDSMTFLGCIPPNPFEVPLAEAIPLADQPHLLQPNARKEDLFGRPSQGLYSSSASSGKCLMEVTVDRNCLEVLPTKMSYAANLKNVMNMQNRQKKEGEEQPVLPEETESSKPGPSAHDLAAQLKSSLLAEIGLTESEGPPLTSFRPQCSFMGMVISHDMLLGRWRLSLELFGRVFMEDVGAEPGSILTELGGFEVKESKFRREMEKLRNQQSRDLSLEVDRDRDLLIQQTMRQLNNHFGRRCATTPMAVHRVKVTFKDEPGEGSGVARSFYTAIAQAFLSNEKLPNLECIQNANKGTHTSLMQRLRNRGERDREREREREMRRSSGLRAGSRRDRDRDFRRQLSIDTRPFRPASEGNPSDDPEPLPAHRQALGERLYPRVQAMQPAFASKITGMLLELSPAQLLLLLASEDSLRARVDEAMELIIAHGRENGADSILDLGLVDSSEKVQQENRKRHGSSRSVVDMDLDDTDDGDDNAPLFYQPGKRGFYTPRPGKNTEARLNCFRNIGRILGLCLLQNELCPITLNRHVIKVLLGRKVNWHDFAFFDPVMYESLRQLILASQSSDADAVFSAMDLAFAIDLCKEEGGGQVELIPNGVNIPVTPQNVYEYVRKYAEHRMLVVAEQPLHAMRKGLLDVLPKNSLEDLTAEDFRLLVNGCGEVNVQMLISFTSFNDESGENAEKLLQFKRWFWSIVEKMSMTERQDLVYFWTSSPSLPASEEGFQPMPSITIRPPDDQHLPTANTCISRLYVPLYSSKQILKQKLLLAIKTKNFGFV

Target: cyclin-dependent kinase 1 (CDK1) (human (endogenous in HCT8-OR and HT29-OR)) (UniProt P06493)
Test: affinity purification with mass spectrometry; CDK1 binding proteins enriched (immunoprecipitated by CDK1), followed by mass spectrometry; cells not given

binding: binds
Substance: E3 ubiquitin ligase UBR5 (from UniProt O95071 1-2799) (enzyme)
